# Measurements taken from the supplement of paper PMC8728848.
# This is one part of the list.
# Legend:
# Test in all cases: glycan array binding signal (z-score within array); higher = stronger binding
# Details in all cases: glycan notation: IUPAC condensed, linker removed
# [1] = molecular target: GlcNAc(b1-3)Gal(b1-4)GlcNAc(b1-3)Gal(b1-4)GlcNAc(b1-3)GalNAc
# How it was run: (§1)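 From the Consortium for Functional Glycomics database, 3228 arrays were curated, keeping only those whose protein sequence was available. Binding is given as a within-array Z-score averaged across arrays sharing a protein sequence and across linkers. Negative Z-scores can be read as non-binding.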
# [2] = molecular target: GlcNAc(b1-3)Gal(b1-4)GlcNAc(b1-3)GalNAc
# How it was run: as §1
# [3] = molecular target: GlcNAc(b1-3)Gal(b1-4)GlcNAc(b1-3)[GlcNAc(b1-3)Gal(b1-4)GlcNAc(b1-3)]GalNAc
# How it was run: as §1
# [4] = molecular target: GlcNAc(b1-3)Gal(b1-4)GlcNAc(b1-6)[Gal(b1-3)]GalNAc
# How it was run: as §1
# [5] = molecular target: GlcNAc(b1-3)Gal(b1-4)GlcNAc(b1-6)[GlcNAc(b1-3)Gal(b1-3)]GalNAc
# How it was run: as §1
# [6] = molecular target: GlcNAc(b1-3)Gal(b1-4)GlcNAc(b1-6)[GlcNAc(b1-3)]Gal(b1-4)GlcNAc
# How it was run: as §1
# GlcNAc(b1-3)GalNAc = molecular target: GlcNAc(b1-3)GalNAc
# How it was run: as §1
# GlcNAc(b1-3)Man = molecular target: GlcNAc(b1-3)Man
# How it was run: as §1
# [7] = molecular target: GlcNAc(b1-3)[GlcNAc(b1-4)][GlcNAc(b1-6)]GlcNAc
# How it was run: as §1
# [8] = molecular target: GlcNAc(b1-3)[GlcNAc(b1-6)]Gal(b1-4)GlcNAc
# How it was run: as §1
# [9] = molecular target: GlcNAc(b1-3)[GlcNAc(b1-6)]GalNAc
# How it was run: as §1
# [10] = molecular target: GlcNAc(b1-4)Gal(b1-4)GlcNAc
# How it was run: as §1
# GlcNAc(b1-4)GlcNAc = molecular target: GlcNAc(b1-4)GlcNAc
# How it was run: as §1
# [11] = molecular target: GlcNAc(b1-4)GlcNAc(b1-4)GlcNAc
# How it was run: as §1
# [12] = molecular target: GlcNAc(b1-4)GlcNAc(b1-4)GlcNAc(b1-4)GlcNAc(b1-4)GlcNAc
# How it was run: as §1
# [13] = molecular target: GlcNAc(b1-4)GlcNAc(b1-4)GlcNAc(b1-4)GlcNAc(b1-4)GlcNAc(b1-4)GlcNAc
# How it was run: as §1
# [14] = molecular target: GlcNAc(b1-4)[GlcNAc(b1-6)]GalNAc
# How it was run: as §1
# [15] = molecular target: GlcNAc(b1-6)Gal(b1-4)GlcNAc
# How it was run: as §1
# GlcNAc(b1-6)GalNAc = molecular target: GlcNAc(b1-6)GalNAc
# How it was run: as §1
# [16] = molecular target: GlcNAc6S(b1-3)Gal(b1-4)GlcNAc
# How it was run: as §1
# Kdn(a2-3)Gal(b1-3)GalNAc = molecular target: Kdn(a2-3)Gal(b1-3)GalNAc
# How it was run: as §1
# Kdn(a2-3)Gal(b1-3)GlcNAc = molecular target: Kdn(a2-3)Gal(b1-3)GlcNAc
# How it was run: as §1
# Kdn(a2-3)Gal(b1-4)Glc = molecular target: Kdn(a2-3)Gal(b1-4)Glc
# How it was run: as §1
# Kdn(a2-3)Gal(b1-4)GlcNAc = molecular target: Kdn(a2-3)Gal(b1-4)GlcNAc
# How it was run: as §1
# [17] = molecular target: Kdn(a2-3)Gal(b1-4)[Fuc(a1-3)]GlcNAc
# How it was run: as §1
# Kdn(a2-6)Gal(b1-4)GlcNAc = molecular target: Kdn(a2-6)Gal(b1-4)GlcNAc
# How it was run: as §1
# [18] = molecular target: Man(a1-2)Man(a1-2)Man(a1-3)Man
# How it was run: as §1
# [19] = molecular target: Man(a1-2)Man(a1-2)Man(a1-6)[Man(a1-3)]Man
# How it was run: as §1
# Man(a1-2)Man(a1-3)Man = molecular target: Man(a1-2)Man(a1-3)Man
# How it was run: as §1
# [20] = molecular target: Man(a1-2)Man(a1-3)[Man(a1-2)Man(a1-6)]Man
# How it was run: as §1
# [21] = molecular target: Man(a1-2)Man(a1-3)[Man(a1-2)Man(a1-6)]Man(a1-6)[Man(a1-2)Man(a1-2)Man(a1-3)]Man
# How it was run: as §1
# [22] = molecular target: Man(a1-2)Man(a1-3)[Man(a1-2)Man(a1-6)]Man(a1-6)[Man(a1-2)Man(a1-2)Man(a1-3)]Man(b1-4)GlcNAc(b1-4)GlcNAc
# How it was run: as §1
# [23] = molecular target: Man(a1-2)Man(a1-3)[Man(a1-6)]Man(a1-6)[Man(a1-2)Man(a1-3)]Man(b1-4)GlcNAc(b1-4)GlcNAc
# How it was run: as §1
# [24] = molecular target: Man(a1-2)Man(a1-6)[Man(a1-3)]Man(a1-6)[Man(a1-2)Man(a1-2)Man(a1-3)]Man
# How it was run: as §1
# [25] = molecular target: Man(a1-2)Man(a1-6)[Man(a1-3)]Man(a1-6)[Man(a1-2)Man(a1-2)Man(a1-3)]Man(b1-4)GlcNAc(b1-4)GlcNAc
# How it was run: as §1
# Man(a1-3)[Man(a1-6)]Man = molecular target: Man(a1-3)[Man(a1-6)]Man
# How it was run: as §1
# [26] = molecular target: Man(a1-3)[Man(a1-6)]Man(a1-6)[Man(a1-2)Man(a1-3)]Man(b1-4)GlcNAc(b1-4)GlcNAc
# How it was run: as §1
# [27] = molecular target: Man(a1-3)[Man(a1-6)]Man(a1-6)[Man(a1-3)]Man
# How it was run: as §1
# [28] = molecular target: Man(a1-3)[Man(a1-6)]Man(a1-6)[Man(a1-3)]Man(b1-4)GlcNAc(b1-4)GlcNAc
# How it was run: as §1
# [29] = molecular target: Man(a1-3)[Man(a1-6)]Man(b1-4)GlcNAc(b1-4)GlcNAc
# How it was run: as §1
# [30] = molecular target: Man(a1-3)[Man(a1-6)]Man(b1-4)GlcNAc(b1-4)[Fuc(a1-6)]GlcNAc
# How it was run: as §1
# Man(a1-6)Man = molecular target: Man(a1-6)Man
# How it was run: as §1
# Man(b1-4)GlcNAc = molecular target: Man(b1-4)GlcNAc
# How it was run: as §1
# MurNAc(b1-4)GlcNAc = molecular target: MurNAc(b1-4)GlcNAc
# How it was run: as §1
# Neu5Ac(a2-3)Gal = molecular target: Neu5Ac(a2-3)Gal
# How it was run: as §1
binder,measurement,setting,value
EULS2 M3 (Oryza sativa) (protein) MVYCRANPNYAMTARNGAVVLAPANPKDEYQHWIKDMRWSTSIKDEEGYPAFALVNKATGQAIKHSLGQSHPVRLVPYNPEVMDESVLWTESRDVGNGFRCIRMVNNIYLNFDAFHGDKYHGGVRDGTDIVLWKLCEGDSLRWKIQPYYILEQKLISEEDLNSAVDHHHHHH,glycan array binding signal (z-score),[1],-0.182
same,glycan array binding signal (z-score),[2],-0.378
same,glycan array binding signal (z-score),[3],-0.074
same,glycan array binding signal (z-score),[4],-0.254
same,glycan array binding signal (z-score),[5],-0.435
same,glycan array binding signal (z-score),[6],-0.011
same,glycan array binding signal (z-score),GlcNAc(b1-3)GalNAc,-0.577
same,glycan array binding signal (z-score),GlcNAc(b1-3)Man,0.383
same,glycan array binding signal (z-score),[7],-0.039
same,glycan array binding signal (z-score),[8],0.163
same,glycan array binding signal (z-score),[9],0.487
same,glycan array binding signal (z-score),[10],-0.079
same,glycan array binding signal (z-score),GlcNAc(b1-4)GlcNAc,-0.142
same,glycan array binding signal (z-score),[11],-0.413
same,glycan array binding signal (z-score),[12],0.11
same,glycan array binding signal (z-score),[13],-0.977
same,glycan array binding signal (z-score),[14],-0.16
same,glycan array binding signal (z-score),[15],1.64
same,glycan array binding signal (z-score),GlcNAc(b1-6)GalNAc,-0.608
same,glycan array binding signal (z-score),[16],-0.064
same,glycan array binding signal (z-score),Kdn(a2-3)Gal(b1-3)GalNAc,-0.224
same,glycan array binding signal (z-score),Kdn(a2-3)Gal(b1-3)GlcNAc,-0.44
same,glycan array binding signal (z-score),Kdn(a2-3)Gal(b1-4)Glc,-0.045
same,glycan array binding signal (z-score),Kdn(a2-3)Gal(b1-4)GlcNAc,-0.754
same,glycan array binding signal (z-score),[17],0.28
same,glycan array binding signal (z-score),Kdn(a2-6)Gal(b1-4)GlcNAc,-0.599
same,glycan array binding signal (z-score),[18],-0.295
same,glycan array binding signal (z-score),[19],0.213
same,glycan array binding signal (z-score),Man(a1-2)Man(a1-3)Man,0.653
same,glycan array binding signal (z-score),[20],-0.066
same,glycan array binding signal (z-score),[21],-0.24
same,glycan array binding signal (z-score),[22],-0.505
same,glycan array binding signal (z-score),[23],-0.381
same,glycan array binding signal (z-score),[24],0.54
same,glycan array binding signal (z-score),[25],0.19
same,glycan array binding signal (z-score),Man(a1-3)[Man(a1-6)]Man,-0.176
same,glycan array binding signal (z-score),[26],-0.43
same,glycan array binding signal (z-score),[27],1.37
same,glycan array binding signal (z-score),[28],0.601
same,glycan array binding signal (z-score),[29],0.133
same,glycan array binding signal (z-score),[30],0.16
same,glycan array binding signal (z-score),Man(a1-6)Man,0.528
same,glycan array binding signal (z-score),Man(b1-4)GlcNAc,0.117
same,glycan array binding signal (z-score),MurNAc(b1-4)GlcNAc,-0.081
same,glycan array binding signal (z-score),Neu5Ac(a2-3)Gal,-1.29

# At a glance, part of the list above.
binder,measurement,setting,value
EULS2 M3 (Oryza sativa) (protein) MVYCRANPNYAMTARNGAVVLAPANPKDEYQHWIKDMRWSTSIKDEEGYPAFALVNKATGQAIKHSLGQSHPVRLVPYNPEVMDESVLWTESRDVGNGFRCIRMVNNIYLNFDAFHGDKYHGGVRDGTDIVLWKLCEGDSLRWKIQPYYILEQKLISEEDLNSAVDHHHHHH,glycan array binding signal (z-score),[28],0.601
same,glycan array binding signal (z-score),[29],0.133
